According to US6120762A, “C-terminal peptides of interferon γ” (priority 1998, dated 2000):
“And” between values parts separate entries of the source, which are not always exact repeats. Equal entries are not always repeated. “Also recorded” adds a separate entry of the source. Part of at least one peptide drawing is inferred or uncertain, most often the ends. Peptide text beside a SMILES is read from it.

Tests used:
[1] = tested on: VSV; type: cell-based, Vesicular stomatitis virus
[2] = tested on: L cells; assay: Antiviral activity on L cells of supernatants from peptide-treated P388D1 cells; type: cell-based, murine; conditions: P388D1 cells treated with 100 μM peptide
[3] = tested on: P388D1 cells; assay: Induction of Ia (MHC class II) expression on P388D1 cells, FACS; type: cell-based, murine; conditions: 100 μM, 24 hours
[4] = target: T1, cytoplasmic domain of the IFNγ receptor (Homo sapiens, UniProt P15260); conditions: Szente et al., 1994(a), 1994(b); cited from earlier work
T1 sequence (P15260 267-489 limits assumed): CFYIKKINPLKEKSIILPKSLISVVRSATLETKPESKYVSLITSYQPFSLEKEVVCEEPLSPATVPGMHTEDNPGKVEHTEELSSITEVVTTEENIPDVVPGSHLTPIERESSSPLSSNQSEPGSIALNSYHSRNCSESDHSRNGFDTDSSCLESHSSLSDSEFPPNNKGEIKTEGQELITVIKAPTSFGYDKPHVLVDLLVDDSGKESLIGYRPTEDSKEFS

[5] = tested on: L cells; assay: Antiviral activity of peptide on murine L cells; type: cell-based; conditions: non-phagocytic cells

Row | Structure (SMILES) | Fold reduction (of VSV yield) [1] | Reduction in virus yield / inhibition of virus replication [1] | Virus yield [1] | Antiviral activity on L cells of supernatants from treated P388D1 cells [2] | Increase in level of Ia expression above untreated cells [3] | Binding to the cytoplasmic domain of the IFNγ receptor [4] | Upregulation of Ia expression [3] | Effect on virus replication ([1]; 25 μM) | Effectiveness in inhibiting virus yield relative to muIFNγ (95-133) ([1]; 100 μM) | Antiviral activity on murine L cells [5]
1 | CC[C@H](C)[C@H](NC(=O)[C@H](CC(C)C)NC(=O)[C@H](CCC(=O)O)NC(=O)[C@H](Cc1c[nH]cn1)NC(=O)[C@@H](NC(=O)[C@H](C)NC(=O)[C@H](CCCCN)NC(=O)[C@H](CCCNC(=N)N)NC(=O)[C@H](CCC(N)=O)NC(=O)[C@@H](NC(=O)[C@H](CC(N)=O)NC(=O)[C@H](CC(C)C)NC(=O)[C@H](CC(=O)O)NC(=O)[C@@H](NC(=O)[C@@H](NC(=O)[C@H](CO)NC(=O)[C@H](Cc1ccc(O)cc1)NC(=O)[C@H](CC(N)=O)NC(=O)[C@@H](NC(=O)[C@@H](N)CC(C)C)[C@@H](C)O)C(C)C)[C@@H](C)O)C(C)C)[C@@H](C)O)C(=O)N[C@@H](CCC(N)=O)C(=O)N[C@H](C(=O)N[C@@H](CCSC)C(=O)N[C@@H](C)C(=O)N[C@@H](CCC(=O)O)C(=O)N[C@@H](CC(C)C)C(=O)N[C@@H](CO)C(=O)N1CCC[C@H]1C(=O)N[C@@H](C)C(=O)N[C@@H](C)C(=O)N[C@@H](CCCCN)C(=O)N[C@H](C(=O)NCC(=O)N[C@@H](CCCCN)C(=O)N[C@@H](CCCNC(=N)N)C(=O)N[C@@H](CCCCN)C(=O)N[C@@H](CCCNC(=N)N)C(=O)N[C@@H](CO)C(=O)N[C@@H](CCC(N)=O)C(=O)N[C@@H](CCSC)C(=O)O)[C@@H](C)O)C(C)C [huIFNγ(95-134)] (H-LTNYSVTDLNVQRKATHELIQVMAELSPAAKTGKRKRSQM-OH) | 8.0×10^6 fold and 8.0 fold | significant reductions in viral yield | 1.0 × 10^6 and 1.0 × 10^11 | did not exhibit antiviral activity | tenfold greater; also recorded: ten-fold increase | binds to the cytoplasmic domain of the IFNγ receptor |  |  |  | 
2 | CC[C@H](C)[C@H](NC(=O)CNC(=O)[C@H](CO)NC(=O)[C@H](CO)NC(=O)[C@H](CC(N)=O)NC(=O)[C@H](Cc1ccccc1)NC(=O)[C@H](Cc1ccc(O)cc1)NC(=O)[C@H](CC(N)=O)NC(=O)[C@H](CC(N)=O)NC(=O)[C@H](CC(C)C)NC(=O)[C@H](CO)NC(=O)[C@H](CCC(=O)O)NC(=O)[C@H](CC(C)C)NC(=O)[C@H](CO)NC(=O)[C@H](CCC(=O)O)NC(=O)[C@@H](NC(=O)[C@@H](NC(=O)[C@@H](NC(=O)CNC(=O)[C@@H](N)Cc1c[nH]cn1)[C@@H](C)O)C(C)C)[C@@H](C)CC)C(=O)N[C@@H](CC(=O)O)C(=O)N[C@H](C(=O)N[C@@H](CCC(=O)O)C(=O)N[C@@H](CCC(=O)O)C(=O)N[C@@H](CCCCN)C(=O)N[C@@H](CO)C(=O)N[C@@H](CC(C)C)C(=O)N[C@@H](Cc1ccccc1)C(=O)N[C@@H](CC(C)C)C(=O)N[C@@H](CC(=O)O)C(=O)N[C@H](C(=O)N[C@@H](Cc1c[nH]c2ccccc12)C(=O)N[C@@H](CCCNC(=N)N)C(=O)N[C@@H](CC(N)=O)C(=O)N[C@@H](Cc1c[nH]c2ccccc12)C(=O)N[C@@H](CCC(N)=O)C(=O)N[C@@H](CCCCN)C(=O)N[C@@H](CC(=O)O)C(=O)NCC(=O)O)[C@@H](C)CC)C(C)C [muIFNγ(1-39), reference compound] (H-HGTVIESLESLNNYFNSSGIDVEEKSLFLDIWRNWQKDG-OH) | 0.0 fold | ineffective in inhibiting virus replication | 8.0 × 10^12 |  |  |  |  |  |  | 
3 | CC[C@H](C)[C@H](NC(=O)[C@H](CC(C)C)NC(=O)[C@H](CCC(=O)O)NC(=O)[C@H](CC(N)=O)NC(=O)[C@H](Cc1ccccc1)NC(=O)[C@H](C)NC(=O)[C@H](CCC(N)=O)NC(=O)[C@H](CCCNC(=N)N)NC(=O)[C@H](CCC(N)=O)NC(=O)[C@@H](NC(=O)[C@H](CCC(N)=O)NC(=O)[C@@H]1CCCN1C(=O)[C@H](CC(N)=O)NC(=O)[C@H](CC(N)=O)NC(=O)[C@@H](NC(=O)[C@H](CCC(=O)O)NC(=O)[C@H](Cc1ccccc1)NC(=O)[C@H](CCCCN)NC(=O)[C@H](C)N)C(C)C)C(C)C)C(=O)N[C@@H](CCCNC(=N)N)C(=O)N[C@H](C(=O)N[C@H](C(=O)N[C@@H](Cc1c[nH]cn1)C(=O)N[C@@H](CCC(N)=O)C(=O)N[C@@H](CC(C)C)C(=O)N[C@@H](CC(C)C)C(=O)N1CCC[C@H]1C(=O)N[C@@H](CCC(=O)O)C(=O)N[C@@H](CO)C(=O)N[C@@H](CO)C(=O)N[C@@H](CC(C)C)C(=O)O)C(C)C)C(C)C [muIFNγ(95-125), reference compound] (H-AKFEVNNPQVQRQAFNELIRVVHQLLPESSL-OH) | 2.0 fold | did not inhibit virus replication | 4.0 × 10^12 |  |  |  | failed to upregulate Ia expression |  |  | 
4 | CC[C@H](C)[C@H](NC(=O)[C@H](CCCCN)NC(=O)[C@@H](NC(=O)[C@H](C)NC(=O)[C@H](CC(N)=O)NC(=O)[C@H](CCC(N)=O)NC(=O)[C@H](CC(N)=O)NC(=O)[C@H](CCC(=O)O)NC(=O)[C@H](CCCNC(=N)N)NC(=O)[C@H](CS)NC(=O)[C@H](CO)NC(=O)[C@@H]1CCCN1)C(C)C)C(=O)N[C@@H](CCC(N)=O)C(=O)N[C@@H](CCCCN)C(=O)N[C@@H](CC(C)C)C(=O)N[C@@H](CO)C(=O)N[C@H](C(=O)N[C@H](C(=O)N[C@@H](CC(C)C)C(=O)N[C@@H](CCCNC(=N)N)C(=O)N[C@@H](CCCNC(=N)N)C(=O)N[C@@H](CCC(=O)O)C(=O)N[C@@H](CCC(N)=O)C(=O)N[C@@H](CCCCN)C(=O)N[C@@H](Cc1c[nH]cn1)C(=O)N[C@@H](CCCNC(=N)N)C(=O)N[C@H](C(=O)N[C@@H](CCC(=O)O)C(=O)N[C@@H](CCCNC(=N)N)C(=O)N[C@@H](CC(C)C)C(=O)N[C@@H](C)C(=O)N[C@@H](Cc1ccccc1)C(=O)N[C@@H](CCCNC(=N)N)C(=O)N[C@@H](CC(N)=O)C(=O)N[C@@H](CCC(N)=O)C(=O)N[C@@H](CO)C(=O)N[C@@H](CC(C)C)C(=O)N1CCC[C@H]1C(=O)N[C@@H](Cc1ccccc1)C(=O)O)C(C)C)C(C)C)C(C)C [muIFNγ(95-133)S, reference compound] (H-PSCRENQNAVKIQKLSVVLRREQKHRVERLAFRNQSLPF-OH) |  |  |  |  |  |  | failed to upregulate Ia expression | had no effect on virus replication | more than 10^9 fold less effective | 
5 | CC[C@H](C)[C@H](NC(=O)[C@H](CC(C)C)NC(=O)[C@H](CCC(=O)O)NC(=O)[C@H](CC(N)=O)NC(=O)[C@H](Cc1ccccc1)NC(=O)[C@H](C)NC(=O)[C@H](CCC(N)=O)NC(=O)[C@H](CCCNC(=N)N)NC(=O)[C@H](CCC(N)=O)NC(=O)[C@@H](NC(=O)[C@H](CCC(N)=O)NC(=O)[C@@H]1CCCN1C(=O)[C@H](CC(N)=O)NC(=O)[C@H](CC(N)=O)NC(=O)[C@@H](NC(=O)[C@H](CCC(=O)O)NC(=O)[C@H](Cc1ccccc1)NC(=O)[C@H](CCCCN)NC(=O)[C@H](C)N)C(C)C)C(C)C)C(=O)N[C@@H](CCCNC(=N)N)C(=O)N[C@H](C(=O)N[C@H](C(=O)N[C@@H](Cc1c[nH]cn1)C(=O)N[C@@H](CCC(N)=O)C(=O)N[C@@H](CC(C)C)C(=O)N[C@@H](CC(C)C)C(=O)N1CCC[C@H]1C(=O)N[C@@H](CCC(=O)O)C(=O)N[C@@H](CO)C(=O)N[C@@H](CO)C(=O)N[C@@H](CC(C)C)C(=O)N[C@@H](CCCNC(=N)N)C(=O)N[C@@H](CCCCN)C(=O)N[C@@H](CCCNC(=N)N)C(=O)N[C@@H](CCCCN)C(=O)N[C@@H](CCCNC(=N)N)C(=O)N[C@@H](CO)C(=O)N[C@@H](CCCNC(=N)N)C(=O)N[C@@H](CS)C(=O)O)C(C)C)C(C)C [muIFNγ(95-133)] (H-AKFEVNNPQVQRQAFNELIRVVHQLLPESSLRKRKRSRC-OH) |  | significant reductions in viral yield | < 10 and 6.0 × 10^6 | did not exhibit antiviral activity | tenfold greater; also recorded: ten-fold increase | binds to the cytoplasmic domain of the IFNγ receptor |  |  |  | no antiviral activity
